Test results: PubChem BioAssay AID1745851 (National Center for Advancing Translational Sciences (NCATS), 2022)
Inconclusive means that the source gave no clear call. A potency beside an inconclusive call is a rough fit, not a confirmed value.

Experiment: Counterscreen for Target Class Profiling of Small Molecule Inhibitors of Methyltransferases
Conditions: MTase-Glo coupled enzymes, SAH conversion luminescence, no MTase; active = well fitted inhibition curve with a large enough effect; inconclusive = small, poorly fitted or top-dose-only effect; inactive = flat fitted curve, though single readings scatter
Text: PI: Matthew D. Hall Ph.D. and Quinlin M. Hanson Ph.D. National Center for Advancing Translational Sciences (NCATS) National Institute of Health (NIH) Rockville, MD Target class profiling (TCP) is a chemical biology approach amenable to investigating understudied biological targets. TCP is achieved by developing a generalizable assay platform and applying it to screen a curated set of compound libraries against representative members of a target class. Small molecule methyltransferases (SMMTase) are a subclass of methyltransferase that act on metabolites to modulate signaling pathways, metabolize xenobiotics, or balance the available methyl pool. […] Enzymatic activity was measured as a function of SAM cofactor conversion using the MTase Glo kit (Promega) for all enzymes. […] The IC50 and efficacy (maximal response) values were determined for each dose-response curve. […]
PROTOCOL TABLE (as described by Inglese J, Shamu CE and Guy RK. 2007) SEQUENCE No. (e.g., 1, 2, 3, etc.); PARAMETER (e.g., Cells, Incubation, Reagent, etc.); VALUE; DESCRIPTION. […] 10; Detection; Luminescence; ViewLux uHTS Microplate Imager (PerkinElmer). […]
Potency is read from the fitted curve at half-maximal effect.

SMILES | Potency
CC(=O)NC[C@H]1C[C@@H]2CCN1C[C@@H]2c1cc(-c2ccc3ccccc3c2)nn1C | inconclusive: 44.1 µM [inhibitor, single point]
CC(=O)c1cccc(NC(=O)NC[C@H]2C[C@@H]3CCN2C[C@@H]3c2cc(-c3ccc(F)cc3)nc(C)n2)c1 | inconclusive: 27.1 µM [inhibitor, partial curve]
